# Library screen at single concentrations

Chains of the proteins cited; added tags and fusions are not shown. Residues count along the entry.
UniProt P9WFT3, whole entry: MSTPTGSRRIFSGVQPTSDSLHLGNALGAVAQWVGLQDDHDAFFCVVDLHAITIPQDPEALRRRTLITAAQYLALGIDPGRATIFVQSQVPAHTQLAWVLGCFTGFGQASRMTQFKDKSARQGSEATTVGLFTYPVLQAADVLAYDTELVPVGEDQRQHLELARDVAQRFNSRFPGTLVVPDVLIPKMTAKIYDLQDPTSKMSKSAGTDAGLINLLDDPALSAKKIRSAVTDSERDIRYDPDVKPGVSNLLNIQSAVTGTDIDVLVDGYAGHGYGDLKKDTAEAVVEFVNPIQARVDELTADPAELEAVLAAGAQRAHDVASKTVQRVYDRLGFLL
UniProt P9WNZ1, whole entry: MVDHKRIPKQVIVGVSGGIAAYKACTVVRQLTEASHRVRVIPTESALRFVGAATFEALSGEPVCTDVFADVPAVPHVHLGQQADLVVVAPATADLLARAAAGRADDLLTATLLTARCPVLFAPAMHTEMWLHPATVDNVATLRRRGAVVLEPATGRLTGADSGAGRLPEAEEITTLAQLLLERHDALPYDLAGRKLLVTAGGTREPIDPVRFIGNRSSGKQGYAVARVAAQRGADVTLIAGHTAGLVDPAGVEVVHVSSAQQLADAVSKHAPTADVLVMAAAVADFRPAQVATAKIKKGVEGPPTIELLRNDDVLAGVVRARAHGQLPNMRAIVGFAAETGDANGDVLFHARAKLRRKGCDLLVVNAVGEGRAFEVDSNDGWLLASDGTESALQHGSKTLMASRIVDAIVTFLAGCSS
UniProt A4I591, 1-473: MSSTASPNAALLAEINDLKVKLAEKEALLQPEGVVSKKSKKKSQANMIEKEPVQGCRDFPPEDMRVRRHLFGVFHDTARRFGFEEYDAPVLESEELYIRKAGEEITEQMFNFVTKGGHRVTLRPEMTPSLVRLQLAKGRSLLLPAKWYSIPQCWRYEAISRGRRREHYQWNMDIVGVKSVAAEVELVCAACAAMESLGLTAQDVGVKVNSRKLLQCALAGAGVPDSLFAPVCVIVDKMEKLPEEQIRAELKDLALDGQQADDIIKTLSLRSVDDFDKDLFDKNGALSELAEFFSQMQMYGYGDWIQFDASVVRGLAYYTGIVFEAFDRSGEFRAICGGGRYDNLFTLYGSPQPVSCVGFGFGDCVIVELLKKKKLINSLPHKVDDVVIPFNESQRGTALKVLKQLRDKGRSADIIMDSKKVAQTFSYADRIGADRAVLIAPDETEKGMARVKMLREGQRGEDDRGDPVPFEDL
UniProt I6X8D2, whole entry: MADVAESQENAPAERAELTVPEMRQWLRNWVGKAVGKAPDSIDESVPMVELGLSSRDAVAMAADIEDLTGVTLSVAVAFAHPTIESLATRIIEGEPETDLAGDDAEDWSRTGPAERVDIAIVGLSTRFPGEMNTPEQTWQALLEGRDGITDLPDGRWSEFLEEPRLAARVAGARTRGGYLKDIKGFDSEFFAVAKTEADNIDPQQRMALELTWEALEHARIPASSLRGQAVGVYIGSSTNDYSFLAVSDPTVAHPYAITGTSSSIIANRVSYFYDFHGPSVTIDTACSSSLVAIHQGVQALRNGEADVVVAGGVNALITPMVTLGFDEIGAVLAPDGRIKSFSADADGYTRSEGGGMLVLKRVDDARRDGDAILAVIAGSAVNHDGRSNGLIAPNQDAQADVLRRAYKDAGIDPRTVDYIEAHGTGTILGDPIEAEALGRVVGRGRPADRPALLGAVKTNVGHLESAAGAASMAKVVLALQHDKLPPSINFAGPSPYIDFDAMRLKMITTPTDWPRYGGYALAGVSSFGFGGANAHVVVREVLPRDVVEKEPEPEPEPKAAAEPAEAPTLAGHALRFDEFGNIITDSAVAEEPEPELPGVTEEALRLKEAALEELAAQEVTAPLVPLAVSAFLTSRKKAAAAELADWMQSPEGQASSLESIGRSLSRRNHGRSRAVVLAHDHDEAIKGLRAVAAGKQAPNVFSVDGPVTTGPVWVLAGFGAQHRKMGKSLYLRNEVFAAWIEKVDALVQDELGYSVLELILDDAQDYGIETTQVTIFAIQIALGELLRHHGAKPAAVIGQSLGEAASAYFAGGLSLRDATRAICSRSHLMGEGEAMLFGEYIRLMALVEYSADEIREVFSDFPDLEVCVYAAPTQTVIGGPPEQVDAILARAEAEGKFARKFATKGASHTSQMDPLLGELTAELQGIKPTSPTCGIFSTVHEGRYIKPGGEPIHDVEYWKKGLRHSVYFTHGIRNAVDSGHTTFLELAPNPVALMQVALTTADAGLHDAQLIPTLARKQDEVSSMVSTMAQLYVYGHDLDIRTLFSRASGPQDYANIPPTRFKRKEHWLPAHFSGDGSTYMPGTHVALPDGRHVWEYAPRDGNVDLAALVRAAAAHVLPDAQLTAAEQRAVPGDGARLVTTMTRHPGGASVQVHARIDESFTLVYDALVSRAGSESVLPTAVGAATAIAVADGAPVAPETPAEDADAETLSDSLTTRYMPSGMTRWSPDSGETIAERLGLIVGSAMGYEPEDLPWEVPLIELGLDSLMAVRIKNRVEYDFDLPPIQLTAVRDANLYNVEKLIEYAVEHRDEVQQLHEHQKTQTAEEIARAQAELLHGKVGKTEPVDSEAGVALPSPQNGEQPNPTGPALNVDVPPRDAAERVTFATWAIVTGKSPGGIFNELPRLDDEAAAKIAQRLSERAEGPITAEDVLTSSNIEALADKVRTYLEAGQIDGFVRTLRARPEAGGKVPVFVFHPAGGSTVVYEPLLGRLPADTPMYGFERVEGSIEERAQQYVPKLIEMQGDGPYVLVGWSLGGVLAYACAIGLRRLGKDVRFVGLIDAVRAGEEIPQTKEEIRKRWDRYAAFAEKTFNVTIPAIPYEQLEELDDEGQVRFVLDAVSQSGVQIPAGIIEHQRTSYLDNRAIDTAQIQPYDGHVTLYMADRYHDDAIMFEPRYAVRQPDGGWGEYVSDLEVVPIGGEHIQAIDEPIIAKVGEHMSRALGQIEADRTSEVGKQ

Source: ChEMBL document CHEMBL3988442, “University of Dundee, Small-Polar-MMV Screening Library” (2021).

MtTrpRS: 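Enzyme assay of tryptophanyl-tRNA synthetase; the read-out is not stated. Target: Tryptophan-tRNA ligase, Mycobacterium tuberculosis (UniProt P9WFT3). Tested at 10 µM. Higher most likely means stronger inhibition; the record gives no direction and few retests gave an IC50. Size under these conditions: about 65,000 compounds, about 64 of them at 50% or above in at least one test.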
CoaBC: 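Coenzyme A biosynthesis protein CoaBC, Mycobacterium tuberculosis (UniProt P9WNZ1). Enzyme assay of CoaBC with a phosphate dye (Biomol Green) read at 650 nm. Concentration: 30 µM. Higher reads as stronger inhibition, judged from the few compounds that gave an IC50. Most strong results did not repeat in a second test. Size under these conditions: about 67,000 compounds, about 40 of them at 50% or above in at least one test.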
LiHisRS: 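Histidine-tRNA ligase, Leishmania infantum (UniProt A4I591). Enzyme assay of histidyl-tRNA synthetase; the read-out is not stated. Tested at 30 µM. Higher reads as stronger inhibition (inferred: compounds with an IC50 in retests scored well above the rest). The assay is labelled LdHisRS but filed under L. infantum. Of about 69,000 compounds tested this way, about 410 (0.6%) reached 50% or more in at least one test.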
Pks13 thioesterase: 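Polyketide synthase Pks13, Mycobacterium tuberculosis (UniProt I6X8D2). Enzyme assay of the thioesterase domain of polyketide synthase 13; the read-out is not stated. Concentration: 30 µM. Higher reads as stronger inhibition (inferred from which compounds were picked for retests). Size under these conditions: about 67,000 compounds, about 300 of them at 50% or above in at least one test.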

Each number is a percent effect as filed.
The record does not define 0% and 100%; most values in the screen are far below 50% and negative numbers occur (in some assays of this library far below -100).
The compounds are a random part of those screened.

- COc1ccc(-c2nc(CCNC(=O)NC3CCC(O)CC3)co2)cc1 (centres unmarked) : MtTrpRS: -2.825%; CoaBC: 2.57%; LiHisRS: 4.425%; Pks13 thioesterase: 1.643%
- Cc1nc(C)n(CC2CN(CCOc3cccc(F)c3)CCO2)n1 (centres unmarked) : MtTrpRS: -8.522%; CoaBC: 0.7833%; LiHisRS: 12.07%; Pks13 thioesterase: -4.036%
- Cc1cc(CN(C)C(=O)C(c2ccccc2C)N(C)C)on1 (centres unmarked) : MtTrpRS: -3.8%; CoaBC: 6.17%; LiHisRS: 8.333%; Pks13 thioesterase: -11.38%
- CC(C)(C)n1ncc2c(=O)n(CC(=O)NCc3ccccc3)cnc21 : MtTrpRS: -2.508%; CoaBC: -5.708%; LiHisRS: 3.478%; Pks13 thioesterase: -0.7545%
- CCc1ccccc1OCC(=O)Nc1ccnc(OCCN(C)C)c1 : MtTrpRS: -4.296%; CoaBC: -21.61%; LiHisRS: 22.37%; Pks13 thioesterase: -4.684%
- CCOc1c(Br)cc(/C=C/c2ncc(C(=O)O)s2)cc1OC : MtTrpRS: -2.224%; CoaBC: 1.118%; LiHisRS: 5.263%; Pks13 thioesterase: -5.737%
- CCCc1cc(C(=O)NCCC2=CCCCC2)[nH]n1 : MtTrpRS: -2.952%; CoaBC: 2.8%; LiHisRS: 12.82%; Pks13 thioesterase: -41.63%
- CC(C)c1ncc(CN2CCOC(C(=O)Nc3ccccc3)C2)cn1 (centres unmarked) : CoaBC: -0.6196%; LiHisRS: 6%; Pks13 thioesterase: -4.809%
- CN(Cc1nc2ccccc2s1)C1CCCN(c2cccnn2)C1 (centres unmarked) : MtTrpRS: -0.000007%; CoaBC: 3.73%; LiHisRS: 4.494%; Pks13 thioesterase: -21.93%
- CCNc1ncc(C(=O)NCc2csc(C)n2)cn1 : MtTrpRS: -1.234%; CoaBC: 2.086%; LiHisRS: 21.57%; Pks13 thioesterase: -2.038%
- CC(C)N(C(=O)CN(C)C1CCc2ccccc21)C(C)C (centres unmarked) : MtTrpRS: -1.318%; CoaBC: 8.492%; LiHisRS: 23.21%; Pks13 thioesterase: -10.98%
- O=C(NCCc1noc(C2CCCC2)n1)c1cn2ccsc2n1 : MtTrpRS: -4.187%; CoaBC: 6.277%; LiHisRS: 14.75%; Pks13 thioesterase: -7.97%
- CCOC(=O)N(C)C1CCN(Cc2cnc3ccccn23)CC1 : MtTrpRS: 1.329%; CoaBC: -0.6369%; LiHisRS: 0%; Pks13 thioesterase: -27.4%
- N#CC1(NC(=O)c2nccc3ccccc23)CCC2(CC1)OCCO2 : MtTrpRS: 1.65%; CoaBC: 8.612%; LiHisRS: 13.33%; Pks13 thioesterase: -17.38%
- Cc1cnc(N)c(C(=O)C2CCN(C(=O)c3ccccc3F)CC2)c1 : MtTrpRS: -2.291%; CoaBC: 8.549%; LiHisRS: 12.41%; Pks13 thioesterase: -16.31%
- Cc1nc(CN2CCCC(N(C)Cc3nccn3C)C2)no1 (centres unmarked) : MtTrpRS: -1.132%; CoaBC: 2.35%; LiHisRS: 10.34%; Pks13 thioesterase: -32.42%
- O=C(NCCc1[nH]nc2c1CCCC2)C1CCCN(Cc2ccco2)C1 (centres unmarked) : MtTrpRS: -3.638%; CoaBC: 1.542%; LiHisRS: 5.208%; Pks13 thioesterase: -32.84%
- Cc1ccc(C(=O)N2C[C@@H]3CCCO[C@@H]3[C@H](N3CCCC3)C2)cn1 : MtTrpRS: 7.118%; CoaBC: 1.48%; LiHisRS: 12.28%; Pks13 thioesterase: -8.505%
- CC(C)n1ncc2c1NC(=O)CC21C(=O)Nc2c(Cl)cc(Cl)cc21 (centres unmarked) : MtTrpRS: -6.633%; CoaBC: 4.441%; LiHisRS: 9.709%; Pks13 thioesterase: -36.78%
- CC(=O)N1CCN(C(=O)C(C)n2cncn2)CC1 (centres unmarked) : MtTrpRS: -1.462%; CoaBC: 4.439%; LiHisRS: 18.92%; Pks13 thioesterase: -13.16%
- Cc1nc(C(=O)N2CCOC(Cc3ccccc3)C2)co1 (centres unmarked) : MtTrpRS: 6.861%; CoaBC: 0.2375%; LiHisRS: 0%; Pks13 thioesterase: -27.18%
- Cc1cc(C)n(C2CCCN(C(=O)c3cnc4onc(C)c4c3)C2)n1 (centres unmarked) : MtTrpRS: -1.016%; CoaBC: 9.744%; LiHisRS: 13.33%; Pks13 thioesterase: -11.98%
- CC(SCCS(C)(=O)=O)c1nc(Cc2ccc(F)cc2)no1 (centres unmarked) : MtTrpRS: -4.789%; CoaBC: -1.491%; LiHisRS: 1.587%; Pks13 thioesterase: -2.056%
- O=C(CS(=O)(=O)c1ccc(Cl)cc1)NC1CCCc2ccccc21 (centres unmarked) : MtTrpRS: -1.636%; CoaBC: 4.091%; LiHisRS: 19.18%; Pks13 thioesterase: -19.5%
- Cc1cccc(CN2CCN(C(=O)c3ccc(C)[nH]c3=O)CC2)c1 : MtTrpRS: 2.579%; CoaBC: 9.96%; LiHisRS: 16.44%; Pks13 thioesterase: -9.027%
- Cn1cccc1C(=O)N1CCCC2(CCCN2S(C)(=O)=O)C1 (centres unmarked) : MtTrpRS: -8.115%; CoaBC: -37.27%; LiHisRS: -200%
- Cc1cccc(CN2CCOCC3(CCN(C4CCOCC4)C3)C2)n1 (centres unmarked) : MtTrpRS: -3.487%; CoaBC: 1.681%; LiHisRS: 14.55%; Pks13 thioesterase: -10.99%
- Cc1cc(=O)[nH]c(=O)n1-c1ccccc1Br : MtTrpRS: -2.177%; CoaBC: -1.816%; LiHisRS: -1.087%; Pks13 thioesterase: -0.5482%
- CCOCCCNc1nc(CS(=O)(=O)c2ccccc2)cs1 : MtTrpRS: -8.767%; CoaBC: 10.32%; LiHisRS: -6.25%; Pks13 thioesterase: -8.717%
- Cc1cnc(C(=O)N(C)[C@@H]2CCC[C@@H](Oc3ccccc3)[C@@H]2O)cn1 : MtTrpRS: 20.58%; CoaBC: 8.029%; LiHisRS: 17.89%; Pks13 thioesterase: 37.26%
- CN(Cc1ccc(-n2cncn2)cc1)Cc1ncc[nH]1 : MtTrpRS: -3.521%; CoaBC: 15.02%; LiHisRS: 7.527%; Pks13 thioesterase: -13.45%
- COCCN1CCCC(c2nc3c([nH]2)CC(C)(C)CNC3=O)C1 (centres unmarked) : MtTrpRS: -0.6966%; CoaBC: 6.61%; LiHisRS: 19.23%; Pks13 thioesterase: -19.88%
- O=C(COC1CCCCC1)N1CCCC(n2ccnc2)C1 (centres unmarked) : MtTrpRS: -3.123%; CoaBC: -9.383%; LiHisRS: 8.547%; Pks13 thioesterase: -16.4%

4 of the entries, repeated:

{"smiles": "CN(Cc1nc2ccccc2s1)C1CCCN(c2cccnn2)C1", "stereo": "centres unmarked", "MtTrpRS": -0.000007, "CoaBC": 3.73, "LiHisRS": 4.494, "Pks13 thioesterase": -21.93}
{"smiles": "Cc1cnc(C(=O)N(C)[C@@H]2CCC[C@@H](Oc3ccccc3)[C@@H]2O)cn1", "MtTrpRS": 20.58, "CoaBC": 8.029, "LiHisRS": 17.89, "Pks13 thioesterase": 37.26}
{"smiles": "CC(C)(C)n1ncc2c(=O)n(CC(=O)NCc3ccccc3)cnc21", "MtTrpRS": -2.508, "CoaBC": -5.708, "LiHisRS": 3.478, "Pks13 thioesterase": -0.7545}
{"smiles": "Cc1ccc(C(=O)N2C[C@@H]3CCCO[C@@H]3[C@H](N3CCCC3)C2)cn1", "MtTrpRS": 7.118, "CoaBC": 1.48, "LiHisRS": 12.28, "Pks13 thioesterase": -8.505}